Laboratory results taken from article PMC9007350, “Aurintricarboxylic acid is a canonical disruptor of the TAZ-TEAD transcriptional complex” (PLoS ONE, 2022).
Further values from the same series stand in other lists.

System: TC/TEAD transcriptional profile in TC-expressing NIH3T3 cells
Experiment: Bulk RNA-Seq, differential gene expression and GSEA (TC ATA v. TC DMSO)
Format: cell-based, murine
Conditions: TC ATA v. TC DMSO
Experimental: NIH3T3 and HEK293 cells were obtained from the American Type Tissue Collection (ATCC, Manassas, VA) and cultured in DMEM containing 10% fetal bovine serum and penicillin/streptomycin. A TEAD dual luciferase reporter assay was performed as previously described. Cells were treated with vehicle control or ATA (10 μM) for 48 h before measuring the luciferase activity or processing the samples for RNA extraction. Each experiment was repeated at least 2-3 times. NIH3T3 cells were used. The extracted RNA (RNeasy Mini, Qiagen) from treated cells was either used for qPCR measurements or sent for bulk RNA-Seq. Sequencing runs were performed on an Illumina HiSeq 4000 sequencer (Genewiz). Subsequent bioinformatics analysis was performed in the Galaxy Project platform. Paired end reads were aligned to the murine genome ([…]2 [27]. Raw count files were generated with featureCounts using a corresponding GTF reference. Differential gene expression analysis was performed with DESeq2 [29]. Transcripts were considered to be differentially expressed if the false discovery rate < 0.05 and Log2FC > 2. When performing differential gene expression for GSEA analysis, the Limma package was used (<5 CPM filtering) with t-scores used for rank statistics. GSEA plots and statistics were generated with FGSEA with custom gene sets. Raw sequencing reads and processed files have been deposited in the GEO repository (data will be uploaded upon manuscript acceptance). The Universal Probe Library probes (Roche) and the associated primer sequences for the qPCR targets are listed below: […]

SMILES: O=C(O)C1=CC(=C(c2ccc(O)c(C(=O)O)c2)c2ccc(O)c(C(=O)O)c2)C=CC1=O [ATA, aurintricarboxylic acid]
- Log2 Fold Change (gene Myo1d): 0.4365
- Log2 Fold Change (gene Myom1): 0.4774
- Log2 Fold Change (gene Myom2): 0.6897
- Log2 Fold Change (gene Myot): 0.6711
- Log2 Fold Change (gene Myoz1): 0.4602
- Log2 Fold Change (gene Naalad2): 0.3473
- Log2 Fold Change (gene Narf): 0.3076
- Log2 Fold Change (gene Nav3): -0.4529
- Log2 Fold Change (gene Ncl): -0.2268
- Log2 Fold Change (gene Ndrg2): 0.5584
- Log2 Fold Change (gene Neb): 0.527
- Log2 Fold Change (gene Nefl): -0.9955
- Log2 Fold Change (gene Nfatc4): 0.4876
- Log2 Fold Change (gene Ngef): -0.6115
- Log2 Fold Change (gene Nmrk2): 1.13
- Log2 Fold Change (gene Nop2): -0.2237
- Log2 Fold Change (gene Npr3): -0.5907
- Log2 Fold Change (gene Nptx1): -0.9075
- Log2 Fold Change (gene Npy4r): 1.064
- Log2 Fold Change (gene Nr1d1): -0.4085
- Log2 Fold Change (gene Nr3c1): 0.1846
- Log2 Fold Change (gene Nrap): 0.7596
- Log2 Fold Change (gene Nrp1): 0.3215
- Log2 Fold Change (gene Nrp2): 0.2717
- Log2 Fold Change (gene Nsd2): -0.2184
- Log2 Fold Change (gene Nsg1): 0.3567
- Log2 Fold Change (gene Nuak1): 0.3648
- Log2 Fold Change (gene Nudt13): 0.4054
- Log2 Fold Change (gene Obscn): 0.5684
- Log2 Fold Change (gene Ogn): 0.2982
- Log2 Fold Change (gene Olfm1): 0.9598
- Log2 Fold Change (gene Opcml): 0.5527
- Log2 Fold Change (gene Pa2g4): -0.2052
- Log2 Fold Change (gene Pabpc1): -0.1899
- Log2 Fold Change (gene Pabpc4): -0.2396
- Log2 Fold Change (gene Pam): 0.1995
- Log2 Fold Change (gene Pank1): 0.26
- Log2 Fold Change (gene Pard6a): 0.4107
- Log2 Fold Change (gene Pard6b): -0.3681
- Log2 Fold Change (gene Parvb): -0.25
- Log2 Fold Change (gene Pbx1): 0.2753
- Log2 Fold Change (gene Pbxip1): 0.3979
- Log2 Fold Change (gene Pcdhb17): 0.5008
- Log2 Fold Change (gene Pde4b): 0.6662
- Log2 Fold Change (gene Pdk2): 0.4769
- Log2 Fold Change (gene Pdk4): 0.6028
- Log2 Fold Change (gene Pdzrn3): 0.3648
- Log2 Fold Change (gene Peg10): -1.135
- Log2 Fold Change (gene Peli2): 0.4464
- Log2 Fold Change (gene Phc2): -0.2212
- Log2 Fold Change (gene Phyh): 0.5623
- Log2 Fold Change (gene Pik3r3): 0.5572
- Log2 Fold Change (gene Pim1): -0.2398
- Log2 Fold Change (gene Pimreg): -0.2047
- Log2 Fold Change (gene Pink1): 0.4263
- Log2 Fold Change (gene Pitpnc1): -0.3043
- Log2 Fold Change (gene Pkd1): 0.2069
- Log2 Fold Change (gene Pla2r1): 0.5567
- Log2 Fold Change (gene Plat): 0.2454
- Log2 Fold Change (gene Plb1): 0.8804
- Log2 Fold Change (gene Plcxd2): -0.4823
- Log2 Fold Change (gene Pld1): 0.3467
- Log2 Fold Change (gene Plk3): -0.2486
- Log2 Fold Change (gene Pltp): 0.4949
- Log2 Fold Change (gene Pmp22): 0.5989
- Log2 Fold Change (gene Polr3g): -0.3438
- Log2 Fold Change (gene Pop1): -0.2432
- Log2 Fold Change (gene Postn): 0.5184
- Log2 Fold Change (gene Ppif): -0.3644
- Log2 Fold Change (gene Prelp): 1.192
- Log2 Fold Change (gene Prex2): 0.4012
- Log2 Fold Change (gene Prkg1): 0.7933
- Log2 Fold Change (gene Prl2c2): 0.4598
- Log2 Fold Change (gene Prl2c5): 0.8033
- Log2 Fold Change (gene Prr5): -0.3446
- Log2 Fold Change (gene Prss35): 1.498
- Log2 Fold Change (gene Psap): 0.2467
- Log2 Fold Change (gene Ptgds): 1.363
- Log2 Fold Change (gene Ptger4): 0.3998
- Log2 Fold Change (gene Ptn): 1.096
- Log2 Fold Change (gene Ptp4a3): 0.4113
- Log2 Fold Change (gene Ptpre): -0.626
- Log2 Fold Change (gene Ptx3): 1.487
- Log2 Fold Change (gene Pxn): -0.3025
- Log2 Fold Change (gene Pxylp1): 0.5078
- Log2 Fold Change (gene Pygo1): 0.3537
- Log2 Fold Change (gene Ralgds): 0.2485
- Log2 Fold Change (gene Raph1): -0.2233
- Log2 Fold Change (gene Rars): -0.3235
- Log2 Fold Change (gene Rasl11a): 0.7443
- Log2 Fold Change (gene Rassf1): -0.3536
- Log2 Fold Change (gene Rassf2): 0.4223
- Log2 Fold Change (gene Rbm38): -0.3121
- Log2 Fold Change (gene Rcc1): -0.2649
- Log2 Fold Change (gene Rcl1): -0.2404
- Log2 Fold Change (gene Reck): 0.3051
- Log2 Fold Change (gene Rgmb): -0.3672
- Log2 Fold Change (gene Rgs16): -1.167
- Log2 Fold Change (gene Rnase4): 0.2281
- Log2 Fold Change (gene Rnf13): 0.2512
- Log2 Fold Change (gene Rnf24): 0.2255
- Log2 Fold Change (gene Rnf157): 0.293
- Log2 Fold Change (gene Rnft1): 0.2266
- Log2 Fold Change (gene Rps2-ps5): 0.5433
- Log2 Fold Change (gene Rps27a-ps2): 0.3469
- Log2 Fold Change (gene Rrp1b): -0.2689
- Log2 Fold Change (gene Rrp9): -0.2842
- Log2 Fold Change (gene Rufy1): -0.263
- Log2 Fold Change (gene Ryr1): 0.3443
- Log2 Fold Change (gene S100a7a): -0.8309
- Log2 Fold Change (gene Sacs): -0.3663
- Log2 Fold Change (gene Sardh): 0.4627
- Log2 Fold Change (gene Sash1): 0.4374
- Log2 Fold Change (gene Sbno2): -0.2738
- Log2 Fold Change (gene Scn1b): 0.5322
- Log2 Fold Change (gene Scx): -1.24
- Log2 Fold Change (gene Sec16b): 0.691
- Log2 Fold Change (gene Selenoh): -0.6572
- Log2 Fold Change (gene Selenot): -0.2262
- Log2 Fold Change (gene Sema3f): 0.2183
- Log2 Fold Change (gene Sema4b): -0.4334
- Log2 Fold Change (gene Sema5a): -0.3616
- Log2 Fold Change (gene Serpinb1a): 0.9856
- Log2 Fold Change (gene Serpinb8): 0.6539
- Log2 Fold Change (gene Serpine1): -0.3094
- Log2 Fold Change (gene Serpinf1): 0.245
- Log2 Fold Change (gene Serping1): 0.7616
- Log2 Fold Change (gene Shmt1): -0.2221
- Log2 Fold Change (gene Sipa1): -0.284
- Log2 Fold Change (gene Sipa1l2): 0.2601
- Log2 Fold Change (gene Slc1a3): 0.855
- Log2 Fold Change (gene Slc16a3): 0.4856
- Log2 Fold Change (gene Slc22a23): 0.3295
- Log2 Fold Change (gene Slc23a2): 0.2819
- Log2 Fold Change (gene Slc25a16): 0.303
- Log2 Fold Change (gene Slc27a1): 0.4471
- Log2 Fold Change (gene Slc40a1): 0.5566
- Log2 Fold Change (gene Slc41a1): -0.3149
- Log2 Fold Change (gene Smad6): 0.7047
- Log2 Fold Change (gene Smad9): 1.326
- Log2 Fold Change (gene Smchd1): -0.2003
- Log2 Fold Change (gene Smim14): 0.4189
- Log2 Fold Change (gene Smoc1): 1.192
- Log2 Fold Change (gene Smtn): -0.3608
- Log2 Fold Change (gene Smurf2): -0.2527
- Log2 Fold Change (gene Snai1): 0.395
- Log2 Fold Change (gene Snta1): 0.9332
- Log2 Fold Change (gene Sod3): 0.8371
- Log2 Fold Change (gene Sorcs2): -0.6842
- Log2 Fold Change (gene Sord): 0.2806
- Log2 Fold Change (gene Sox9): -0.5093
- Log2 Fold Change (gene Sp100): 0.4955
- Log2 Fold Change (gene Sparcl1): 0.6451
- Log2 Fold Change (gene Spire1): -0.3218
- Log2 Fold Change (gene Spout1): -0.2134
- Log2 Fold Change (gene Src): -0.3248
- Log2 Fold Change (gene Srl): 0.3631
- Log2 Fold Change (gene Srsf1): -0.1632
- Log2 Fold Change (gene Ssc5d): 0.5291
- Log2 Fold Change (gene Sspn): 0.3567
- Log2 Fold Change (gene St3gal5): 0.3007
- Log2 Fold Change (gene Stambpl1): -0.2204
- Log2 Fold Change (gene Stat3): 0.52
- Log2 Fold Change (gene Stat5a): 0.5005
- Log2 Fold Change (gene Stra6): -1.42
- Log2 Fold Change (gene Styk1): 0.3717
- Log2 Fold Change (gene Suv39h1): -0.2075
- Log2 Fold Change (gene Syt13): -1.0829
- Log2 Fold Change (gene Tapbp): 0.4064
- Log2 Fold Change (gene Tars): -0.2595
- Log2 Fold Change (gene Tbrg4): -0.213
- Log2 Fold Change (gene Tceal9): 0.2274
- Log2 Fold Change (gene Tcof1): -0.2054
- Log2 Fold Change (gene Tgfb2): 0.4696
- Log2 Fold Change (gene Thbs1): 1.182
- Log2 Fold Change (gene Thbs2): 0.8061
- Log2 Fold Change (gene Thbs4): 1.132
- Log2 Fold Change (gene Them6): 0.6526
- Log2 Fold Change (gene Thy1): 0.2337
- Log2 Fold Change (gene Timp3): 0.6248
- Log2 Fold Change (gene Timp4): 1.073
- Log2 Fold Change (gene Tm7sf3): 0.2578
- Log2 Fold Change (gene Tmcc3): -0.6032
- Log2 Fold Change (gene Tmem44): 0.8313
- Log2 Fold Change (gene Tmem45a): 0.6358
- Log2 Fold Change (gene Tmem59): 0.233
- Log2 Fold Change (gene Tmem106b): 0.4399
- Log2 Fold Change (gene Tmem123): 0.2229
- Log2 Fold Change (gene Tmem158): 0.419
- Log2 Fold Change (gene Tmem179): -0.7208
- Log2 Fold Change (gene Tnnc1): 0.9845
- Log2 Fold Change (gene Tnr): 1.261
- Log2 Fold Change (gene Tnrc18): 0.3176
- Log2 Fold Change (gene Tns1): 0.3282
- Log2 Fold Change (gene Tppp): 1.04
- Log2 Fold Change (gene Traf5): 0.5172
- Log2 Fold Change (gene Trafd1): 0.3731
- Log2 Fold Change (gene Trim8): -0.1948
- Log2 Fold Change (gene Trmt1): -0.224
- Log2 Fold Change (gene Trp53inp1): 0.6461
- Log2 Fold Change (gene Tspan3): 0.1875
- Log2 Fold Change (gene Ttyh3): 0.3329
- Log2 Fold Change (gene Tubb3): -0.6269
- Log2 Fold Change (gene Twnk): -0.3138
- Log2 Fold Change (gene Txlnb): 0.4916
- Log2 Fold Change (gene Txnip): 0.7687
- Log2 Fold Change (gene Uck2): -0.1684
- Log2 Fold Change (gene Usp20): 0.3539
- Log2 Fold Change (gene Utp20): -0.2668
- Log2 Fold Change (gene Vars): -0.2196
- Log2 Fold Change (gene Vasn): 0.2551
- Log2 Fold Change (gene Wincr1): -0.6443
- Log2 Fold Change (gene Wls): 0.2525
- Log2 Fold Change (gene Xbp1): 0.2279
- Log2 Fold Change (gene Xist): -0.9006
- Log2 Fold Change (gene Zbtb4): 0.3372
- Log2 Fold Change (gene Zbtb12): -0.239
- Log2 Fold Change (gene Zfand5): 0.185
- Log2 Fold Change (gene Zfp52): -0.3705
- Log2 Fold Change (gene Zfp65): 0.3915
- Log2 Fold Change (gene Zfp747): -0.457
- Log2 Fold Change (gene Zfyve1): 0.2502
- Log2 Fold Change (gene Zhx1): 0.2955
- Log2 Fold Change (gene mt-Rnr2): 0.4083
